Source: PubChem BioAssay AID686943 (Drosophila RNAi Screening Center, 2013)

Assay: 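Search across the genome for regulators of signalling from receptor tyrosine kinase to ERK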 (primary screen)
System: Drosophila S2R+ haemocyte-like cells expressing YFP-tagged ERK (Rolled)
Knock-down reagent: long dsRNA against Drosophila genes
Challenge: insulin stimulation versus unstimulated cells; dose and duration not given
Detection: 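Antibody staining for doubly phosphorylated ERK divided by ERK-YFP signal, as plate z-scores, in insulin-treated and untreated cells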
Reading the numbers: replicate 1, z-score of dpERK with insulin: higher = more active ERK per ERK-YFP after insulin
In all, the deposit lists about 23,000 reagents; shown is a random part of those that have a named target and a result. 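Extra replicates exist only for a retested subset of genes; insulin dose and duration not given; both raised and lowered dpERK matter.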 Reagents against one gene are numbered here. Further read-outs or replicates are left out here. Reagent sequences are not shown. Not given: the amount of reagent, the time to read-out.

Tim13 — replicate 1, z-score of dpERK with insulin = -0.05
LanB2 (Laminin B2) — replicate 1, z-score of dpERK with insulin = -0.06
CG14105 — replicate 1, z-score of dpERK with insulin = 0.38
CG46491 #1 — replicate 1, z-score of dpERK with insulin = 0.84
CG46491 #2 — replicate 1, z-score of dpERK with insulin = 0.5
ft (fat) — replicate 1, z-score of dpERK with insulin = -0.35
UbcE2M (NEDD8-conjugating enzyme UbcE2M) — replicate 1, z-score of dpERK with insulin = 0.75
Flacc (Fl(2)d-associated complex component) — replicate 1, z-score of dpERK with insulin = -0.05
CG1698 — replicate 1, z-score of dpERK with insulin = -0.24
Srp14 (Signal recognition particle 14) — replicate 1, z-score of dpERK with insulin = -0.04
CG34445 — replicate 1, z-score of dpERK with insulin = 0.05
Eh (Eclosion hormone) — replicate 1, z-score of dpERK with insulin = 0.17
Pkcdelta (Protein kinase C delta) #1 — replicate 1, z-score of dpERK with insulin = 0
Pkcdelta (Protein kinase C delta) #2 — replicate 1, z-score of dpERK with insulin = 0.73

Laid out differently: 2 of the entries above
gene,reagent,"replicate 1, z-score of dpERK with insulin"
CG34445,1,0.05
Eh (Eclosion hormone),1,0.17

Next results follow.
CG17601 — replicate 1, z-score of dpERK with insulin = 0.34
CG14115 — replicate 1, z-score of dpERK with insulin = -0.38
CG5245 — replicate 1, z-score of dpERK with insulin = 0.41
CG5250 — replicate 1, z-score of dpERK with insulin = -0.57
CG7730 — replicate 1, z-score of dpERK with insulin = 0.04
Cep89 (Centrosomal protein 89kDa) — replicate 1, z-score of dpERK with insulin = -0.1
CG11333 — replicate 1, z-score of dpERK with insulin = -0.45
